Measurements taken from article PMC5608970.
Results are given in words; binding and its absence hold for the method and conditions named. For some assays here: In cells and extracts the contact can be indirect. Some results given as binding are weak or reduced against the parent protein; the word gives no strength. Values belong to the substance of their own block, whether it stands above or below them.

Sequences of proteins named here, by UniProt entry; tags and fusion partners are left off. A change or cut given only in a name is not applied to a line headed by its entry. Residues count along the entry.
UniProt Q13467, residues 27-585: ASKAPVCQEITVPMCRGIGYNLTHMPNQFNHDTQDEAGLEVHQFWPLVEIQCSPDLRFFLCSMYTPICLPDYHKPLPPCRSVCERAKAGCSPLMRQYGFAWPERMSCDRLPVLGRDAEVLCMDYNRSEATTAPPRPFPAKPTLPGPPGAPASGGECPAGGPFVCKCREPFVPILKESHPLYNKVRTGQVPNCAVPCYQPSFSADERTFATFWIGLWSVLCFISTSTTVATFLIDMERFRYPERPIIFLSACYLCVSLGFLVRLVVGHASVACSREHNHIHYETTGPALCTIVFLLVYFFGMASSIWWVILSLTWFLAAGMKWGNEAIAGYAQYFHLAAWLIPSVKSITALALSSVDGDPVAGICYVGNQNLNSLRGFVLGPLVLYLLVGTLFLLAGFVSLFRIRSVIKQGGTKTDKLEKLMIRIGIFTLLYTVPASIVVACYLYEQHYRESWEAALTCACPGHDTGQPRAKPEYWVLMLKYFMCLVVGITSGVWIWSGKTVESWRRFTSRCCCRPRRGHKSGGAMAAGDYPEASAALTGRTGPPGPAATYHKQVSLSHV
UniProt Q9H228: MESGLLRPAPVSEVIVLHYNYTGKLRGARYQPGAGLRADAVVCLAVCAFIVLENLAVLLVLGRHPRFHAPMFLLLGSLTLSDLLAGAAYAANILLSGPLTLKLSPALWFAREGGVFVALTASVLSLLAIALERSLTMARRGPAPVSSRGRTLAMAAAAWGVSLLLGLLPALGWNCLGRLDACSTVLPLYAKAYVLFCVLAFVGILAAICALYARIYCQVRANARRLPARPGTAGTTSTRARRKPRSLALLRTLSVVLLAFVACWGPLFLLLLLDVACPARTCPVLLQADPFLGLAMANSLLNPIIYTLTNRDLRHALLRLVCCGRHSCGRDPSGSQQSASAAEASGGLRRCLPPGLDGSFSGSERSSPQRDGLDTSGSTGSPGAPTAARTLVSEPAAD
UniProt P18825: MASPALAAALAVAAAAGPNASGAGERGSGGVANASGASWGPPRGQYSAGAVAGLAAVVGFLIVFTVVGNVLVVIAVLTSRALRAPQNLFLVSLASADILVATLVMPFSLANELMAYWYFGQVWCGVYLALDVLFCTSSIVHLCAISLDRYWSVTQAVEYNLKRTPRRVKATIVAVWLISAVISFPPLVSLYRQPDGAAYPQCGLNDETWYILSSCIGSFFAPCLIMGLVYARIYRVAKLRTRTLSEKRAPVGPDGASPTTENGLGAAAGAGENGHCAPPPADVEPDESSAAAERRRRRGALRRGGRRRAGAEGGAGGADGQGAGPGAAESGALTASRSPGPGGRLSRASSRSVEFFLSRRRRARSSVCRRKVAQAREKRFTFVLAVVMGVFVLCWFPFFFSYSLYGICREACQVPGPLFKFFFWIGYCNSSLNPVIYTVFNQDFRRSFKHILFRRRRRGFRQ
UniProt Q9BXB1, residues 25-951: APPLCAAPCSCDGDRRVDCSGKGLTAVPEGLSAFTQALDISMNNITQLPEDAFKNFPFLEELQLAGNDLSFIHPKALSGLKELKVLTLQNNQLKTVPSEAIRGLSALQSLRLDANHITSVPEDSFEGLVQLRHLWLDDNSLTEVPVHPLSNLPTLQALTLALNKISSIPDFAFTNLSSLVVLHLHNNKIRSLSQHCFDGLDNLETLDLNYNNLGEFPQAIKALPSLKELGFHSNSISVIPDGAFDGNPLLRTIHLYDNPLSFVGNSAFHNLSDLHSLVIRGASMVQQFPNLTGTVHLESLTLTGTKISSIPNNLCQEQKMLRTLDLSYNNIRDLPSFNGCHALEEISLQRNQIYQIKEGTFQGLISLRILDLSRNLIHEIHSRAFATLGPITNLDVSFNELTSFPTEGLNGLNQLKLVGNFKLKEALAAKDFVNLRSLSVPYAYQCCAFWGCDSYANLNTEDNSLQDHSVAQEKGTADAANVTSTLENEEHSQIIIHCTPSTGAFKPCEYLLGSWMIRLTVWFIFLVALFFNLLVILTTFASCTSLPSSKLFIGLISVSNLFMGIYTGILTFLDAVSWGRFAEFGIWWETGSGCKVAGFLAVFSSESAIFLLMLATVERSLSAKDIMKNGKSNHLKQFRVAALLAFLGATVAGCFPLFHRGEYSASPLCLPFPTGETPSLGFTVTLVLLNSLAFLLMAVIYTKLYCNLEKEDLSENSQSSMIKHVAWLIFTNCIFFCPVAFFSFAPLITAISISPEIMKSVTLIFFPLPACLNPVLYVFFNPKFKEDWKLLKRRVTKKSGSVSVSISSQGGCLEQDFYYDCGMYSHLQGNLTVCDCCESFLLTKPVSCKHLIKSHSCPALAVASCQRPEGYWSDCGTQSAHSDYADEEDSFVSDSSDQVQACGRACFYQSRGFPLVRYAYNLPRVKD
UniProt O95136: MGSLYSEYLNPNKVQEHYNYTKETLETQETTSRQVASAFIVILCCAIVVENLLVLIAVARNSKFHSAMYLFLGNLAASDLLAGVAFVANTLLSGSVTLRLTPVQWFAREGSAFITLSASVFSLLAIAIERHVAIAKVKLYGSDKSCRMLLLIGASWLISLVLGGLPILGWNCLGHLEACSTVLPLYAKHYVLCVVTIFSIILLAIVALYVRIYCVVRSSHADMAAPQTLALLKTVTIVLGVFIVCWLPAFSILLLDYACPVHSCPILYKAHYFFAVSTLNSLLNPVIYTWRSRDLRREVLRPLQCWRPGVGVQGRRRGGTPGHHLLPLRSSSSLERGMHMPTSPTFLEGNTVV

Tests used:
[1] = biological target: FZD5 (human) (UniProt Q13467); test: FRET or BRET; type-1 BRET: GFP2- and Rluc-tagged copies of the receptor co-expressed in HEK293T cells, acceptor:donor ratio varied at constant expression; data fitted to monomer versus dimer models (R^2); read 24 hr (some 48 hr) post-transfection
[2] = biological target: FZD5 (human) (UniProt Q13467); test: FRET or BRET; type-3 BRET: GFP2- and Rluc-tagged copies (12:1 pGFP2:pRluc) in HEK293T cells with untagged competitor or blank pU vector (2:1 pU:(pGFP2+pRluc)); p^diff tells whether BRETeff is affected by the competitor
[3] = biological target: S1P receptor S1P5 (human) (UniProt Q9H228); test: FRET or BRET; type-1 BRET: GFP2- and Rluc-tagged copies of the receptor co-expressed in HEK293T cells, acceptor:donor ratio varied at constant expression; data fitted to monomer versus dimer models (R^2); read 24 hr (some 48 hr) post-transfection
[4] = biological target: S1P receptor S1P5 (human) (UniProt Q9H228); test: FRET or BRET; type-3 BRET: GFP2- and Rluc-tagged copies (12:1 pGFP2:pRluc) in HEK293T cells with untagged competitor or blank pU vector (2:1 pU:(pGFP2+pRluc)); p^diff tells whether BRETeff is affected by the competitor
[5] = biological target: α2C-adrenergic receptor (human) (UniProt P18825); test: FRET or BRET; type-1 BRET: GFP2- and Rluc-tagged copies of the receptor co-expressed in HEK293T cells, acceptor:donor ratio varied at constant expression; data fitted to monomer versus dimer models (R^2); read 24 hr (some 48 hr) post-transfection
[6] = biological target: α2C-adrenergic receptor (human) (UniProt P18825); test: FRET or BRET; type-3 BRET: GFP2- and Rluc-tagged copies (12:1 pGFP2:pRluc) in HEK293T cells with untagged competitor or blank pU vector (2:1 pU:(pGFP2+pRluc)); p^diff tells whether BRETeff is affected by the competitor
[7] = biological target: leucine-rich repeat-containing receptor LGR4 (human) (UniProt Q9BXB1); test: FRET or BRET; type-1 BRET: GFP2- and Rluc-tagged copies of the receptor co-expressed in HEK293T cells, acceptor:donor ratio varied at constant expression; data fitted to monomer versus dimer models (R^2); read 24 hr (some 48 hr) post-transfection
[8] = biological target: leucine-rich repeat-containing receptor LGR4 (human) (UniProt Q9BXB1); test: FRET or BRET; type-3 BRET: GFP2- and Rluc-tagged copies (12:1 pGFP2:pRluc) in HEK293T cells with untagged competitor or blank pU vector (2:1 pU:(pGFP2+pRluc)); p^diff tells whether BRETeff is affected by the competitor
[9] = biological target: α2CAR, C-terminal SNAP-tag and HaloTag fusions (human) (UniProt P18825); test: single-molecule cross-color coincidence detection (SMCCCD); HaloTag (TMR) and SNAP-tag (505 Star) fusions co-expressed at low level in CHO K1 cells; fraction of HaloTag-labeled receptors within 300 nm of a SNAP-tag-labeled receptor, compared with CD86 and CD28
[10] = biological target: S1P receptor S1P2 (human) (UniProt O95136); test: FRET or BRET; type-1 BRET: GFP2- and Rluc-tagged copies of the receptor co-expressed in HEK293T cells, acceptor:donor ratio varied at constant expression; data fitted to monomer versus dimer models (R^2); read 24 hr (some 48 hr) post-transfection
[11] = biological target: S1P receptor S1P2 (human) (UniProt O95136); test: FRET or BRET; type-3 BRET: GFP2- and Rluc-tagged copies (12:1 pGFP2:pRluc) in HEK293T cells with untagged competitor or blank pU vector (2:1 pU:(pGFP2+pRluc)); p^diff tells whether BRETeff is affected by the competitor

Substance: FZD5 (from UniProt Q13467 27-585) (receptor)
binding [1]: binds
binding [2]: binds

Substance: S1P receptor S1P5 (from UniProt Q9H228 1-398)
binding [3]: binds
binding [4]: binds

Substance: α2CAR, C-terminal SNAP-tag and HaloTag fusions (from UniProt P18825 1-462) (receptor)
binding [9]: binds weakly

Next, values leading:

binding [5]: binds
binding [6]: binds
Substance: α2C-adrenergic receptor (from UniProt P18825 1-462)

binding [7]: binds
binding [8]: binds
Substance: leucine-rich repeat-containing receptor LGR4 (from UniProt Q9BXB1 25-951)

binding [10]: binds
binding [11]: binds
Substance: S1P receptor S1P2 (from UniProt O95136 1-353)
